Measurements taken from article PMC9039659.
No constants are given. Whether binding was seen depends on the method and setting. Binding seen in cells or lysates may run through a third protein. Some results given as binding are weak or reduced against the parent protein; the word gives no strength.

Sequences of proteins named here, by UniProt entry; tags and fusion partners are left off.
UniProt P35222: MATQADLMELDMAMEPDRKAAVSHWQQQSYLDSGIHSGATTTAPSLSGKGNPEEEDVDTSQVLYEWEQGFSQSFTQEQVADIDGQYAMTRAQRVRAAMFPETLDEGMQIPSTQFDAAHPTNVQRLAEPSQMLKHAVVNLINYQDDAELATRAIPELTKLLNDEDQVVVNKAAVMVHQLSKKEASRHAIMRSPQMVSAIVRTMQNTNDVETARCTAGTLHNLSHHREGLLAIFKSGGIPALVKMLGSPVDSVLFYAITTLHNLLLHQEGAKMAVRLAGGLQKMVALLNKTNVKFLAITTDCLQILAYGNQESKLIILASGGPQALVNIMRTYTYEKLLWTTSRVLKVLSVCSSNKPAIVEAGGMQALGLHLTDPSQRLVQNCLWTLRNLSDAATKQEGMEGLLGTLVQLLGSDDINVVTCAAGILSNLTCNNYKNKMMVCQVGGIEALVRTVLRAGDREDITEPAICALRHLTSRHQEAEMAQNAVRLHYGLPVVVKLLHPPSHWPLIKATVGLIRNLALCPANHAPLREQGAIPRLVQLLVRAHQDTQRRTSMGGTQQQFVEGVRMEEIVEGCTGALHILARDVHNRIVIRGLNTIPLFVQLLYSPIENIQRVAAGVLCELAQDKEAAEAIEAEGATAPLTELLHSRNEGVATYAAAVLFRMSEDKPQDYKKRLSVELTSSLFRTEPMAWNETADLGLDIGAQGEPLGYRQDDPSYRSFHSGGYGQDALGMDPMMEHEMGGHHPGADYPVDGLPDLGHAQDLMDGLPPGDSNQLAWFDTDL
UniProt P49841: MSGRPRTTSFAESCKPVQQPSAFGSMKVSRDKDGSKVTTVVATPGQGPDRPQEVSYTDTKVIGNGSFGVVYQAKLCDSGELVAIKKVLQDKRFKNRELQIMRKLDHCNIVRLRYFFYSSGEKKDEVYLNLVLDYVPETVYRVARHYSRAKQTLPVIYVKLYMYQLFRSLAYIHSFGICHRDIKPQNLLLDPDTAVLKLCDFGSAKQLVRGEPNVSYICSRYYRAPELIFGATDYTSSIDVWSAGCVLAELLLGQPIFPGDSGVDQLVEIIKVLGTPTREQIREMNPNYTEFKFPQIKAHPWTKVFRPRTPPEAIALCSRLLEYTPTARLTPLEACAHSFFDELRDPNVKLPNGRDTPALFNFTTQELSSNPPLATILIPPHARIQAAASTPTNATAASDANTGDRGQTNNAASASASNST
UniProt O95863: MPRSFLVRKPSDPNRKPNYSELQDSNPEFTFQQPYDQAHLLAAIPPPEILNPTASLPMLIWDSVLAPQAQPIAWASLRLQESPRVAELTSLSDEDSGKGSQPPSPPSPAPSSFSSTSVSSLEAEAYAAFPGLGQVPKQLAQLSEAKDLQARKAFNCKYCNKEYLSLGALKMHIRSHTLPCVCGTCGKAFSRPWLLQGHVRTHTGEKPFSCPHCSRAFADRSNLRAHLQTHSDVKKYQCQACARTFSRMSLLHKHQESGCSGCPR

Tests used:
[1] = target: β-catenin (human (endogenous in HUVEC)) (UniProt P35222); experiment: co-IP; endogenous proteins in NP-40 lysate of HUVECs, with or without WNT10A treatment of the cells; immunoprecipitated with antibody against β-catenin, protein A/G agarose beads, 4°C; immunoblot; IgG as negative control
[2] = target: glycogen synthase kinase 3β (human (endogenous in HUVEC)) (UniProt P49841); experiment: co-IP; endogenous proteins in NP-40 lysate of HUVECs, with or without WNT10A treatment of the cells; immunoprecipitated with antibody against GSK3β, protein A/G agarose beads, 4°C; immunoblot; IgG as negative control

- binding [1]: binds
- binding [2]: binds
Substance: snail (from UniProt O95863 1-264)
